Measured values: patent publication US10017453B2, “Pharmaceutically acceptable salts of fatty acids” (Dignity Sciences Limited, priority 2013, dated 2018)

Key:
[1] = storage
[2] = 8 Day Stability 40/75% RH of solids from the salt/cocrystal screen; type: physicochemical; conditions: 8 days

What does the source list for `CCCCCC(O)/C=C/C=C\C/C=C\CCCCCCC(=O)O.NCCC[C@H](N)C(=O)O` (centres unmarked) [15-HETrE ornithine salt, 15-Hydroxy-eicosa-8(Z),11(Z),13(E)-trienoic acid ornithine salt]?
Appearance over time [1]: yellow coloration over time; 8 Day Stability 40/75% RH [2]: 96% purity
